Measurements: PubChem BioAssay AID218 (DTP/NCI, 2004)
The list shows only some results of the screen, not a fair sample: it is rich in T/C values a quarter to a half above the control, in often repeated tests (any T/C) and in doses without a T/C. Further doses and runs are listed elsewhere. T/C is the treated group as % of the vehicle group. Schedule codes are those of the source, read here as Q, the interval in days (D) or hours (H), X, the number of doses. Some T/C values are followed by the survivors on the day toxicity was checked, most often the fifth; where none is given, no animal had died by that day. Some doses have a count of surviving animals in place of a T/C: the source holds a T/C of zero for them, seemingly a mark for toxic or unscored doses. Survivors were counted at the toxicity check, usually on the fifth day, unless a day is given; later deaths do not show. Some doses were run more than once; the results are listed from low to high. Some schedule codes hold Z or #, which are not explained here.

System: C57BL/6 mice, Adenocarcinoma 755 sc, tumor weight T/C
Assay: NCI In Vivo Anticancer Drug Screen. Data for tumor model Adenocarcinoma 755 (subcutaneous) in C57BL/6 mice
Details: T/C endpoint: mean tumor weight, higher T/C = larger tumour; for T/C: evaluated on day 12
Description: The antitumor activity of compounds was measured in mice bearing transplantable tumors. Survival or tumor size were measured and the results are expressed as the measurement made in the treated group (T) divided by the measurement made in the vehicle treated control group (C). The tumor model used in this assay is Adenocarcinoma 755 (subcutaneous) in C57BL/6 mice

[1] = dose: 100.0 mg/kg/injection, schedule: Q01DX011 (ip), vehicle: carboxymethylcellulose (CMC)
[2] = dose: 225.0 mg/kg/injection, schedule: Q01DX011 (ip), vehicle: carboxymethylcellulose (CMC)
[3] = dose: 100.0 mg/kg/injection, schedule: Q01DX011 (ip), vehicle: saline
[4] = dose: 75.0 mg/kg/injection, schedule: Q01DX011 (ip), vehicle: carboxymethylcellulose (CMC)
[5] = dose: 50.0 mg/kg/injection, schedule: Q01DX011 (ip), vehicle: saline
[6] = dose: 75.0 mg/kg/injection, schedule: Q01DX011 (ip), vehicle: saline

SMILES: O=C(c1ccc(C(=O)N2CC2)cc1)N1CC1
- T/C (dose: 3.0 mg/kg/injection, schedule: Q01DX011 (ip), vehicle: methylcellulose (MC)): 126 % of control [9 of 10 alive]
- T/C (dose: 6.25 mg/kg/injection, schedule: Q01DX011 (ip), vehicle: methylcellulose (MC)): 129 % of control [9 of 10 alive]

SMILES: C=CC(CN1CC1)OC(C)=O (configuration not stated)
- survivor count (dose: 2.0 mg/kg/injection, schedule: Q01DX011 (sc), vehicle: saline): 6 of 10
- survivor count (dose: 4.0 mg/kg/injection, schedule: Q#A X022 (ip), vehicle: saline): 6 of 10
- survivor count (dose: 8.0 mg/kg/injection, schedule: Q#A X022 (ip), vehicle: saline): 2 of 10
- survivor count (dose: 15.0 mg/kg/injection, schedule: Q01DX011 (oral), vehicle: saline): 4 of 12

SMILES: CC1CCOS(=O)O1 (configuration not stated)
- T/C (dose: 24.0 mg/kg/injection, schedule: Q01DX011 (ip), vehicle: carboxymethylcellulose (CMC)): 139 % of control
- T/C (dose: 36.0 mg/kg/injection, schedule: Q01DX011 (ip), vehicle: carboxymethylcellulose (CMC)): 145 % of control [8 of 10 alive]
- survivor count (dose: 54.0 mg/kg/injection, schedule: Q01DX011 (ip), vehicle: carboxymethylcellulose (CMC)): 6 of 10
- survivor count (dose: 81.0 mg/kg/injection, schedule: Q01DX011 (ip), vehicle: carboxymethylcellulose (CMC)): 1 of 10

SMILES: CS(=O)(=O)OCCC(=O)N1CCN(C(=O)CCOS(C)(=O)=O)CC1
- survivor count (dose: 50.0 mg/kg/injection, schedule: Q01DX011 (ip), vehicle: methylcellulose (MC)): 1 of 10

SMILES: CN1c2ccc3ccccc3c2Sc2ccc3ccccc3c21
- survivor count (dose: 66.0 mg/kg/injection, schedule: Q01DX011 (ip), vehicle: carboxymethylcellulose (CMC)): 4 of 10
- survivor count [1]: 5 of 10
- survivor count (dose: 150.0 mg/kg/injection, schedule: Q01DX011 (ip), vehicle: carboxymethylcellulose (CMC)): 0 of 10
- survivor count [2]: 2 of 10

SMILES: CCC(=O)c1cc2c(cc1CC)C(C)(C)CCC2(C)C
- survivor count (dose: 50.0 mg/kg/injection, schedule: Q01DX011 (ip), vehicle: carboxymethylcellulose (CMC)): 6 of 10
- survivor count [1]: 2 of 10
- survivor count (dose: 200.0 mg/kg/injection, schedule: Q01DX011 (ip), vehicle: carboxymethylcellulose (CMC)): 1 of 10
- survivor count (dose: 400.0 mg/kg/injection, schedule: Q01DX011 (ip), vehicle: carboxymethylcellulose (CMC)): 0 of 10

SMILES: c1ncc2[nH]cnc2n1
- survivor count (dose: 15.0 mg/kg/injection, schedule: Q01DX011 (ip), vehicle: saline): 0 of 10
- survivor count (dose: 20.0 mg/kg/injection, schedule: Q01DX011 (ip), vehicle: saline): 0 of 10

SMILES: CCOC(C)C(/C=N/NC(N)=S)=NNC(N)=S (configuration not stated)
- survivor count (dose: 240.0 mg/kg/injection, schedule: Q01DX011 (ip), vehicle: saline): 1 of 10
- survivor count (dose: 480.0 mg/kg/injection, schedule: Q01DX011 (ip), vehicle: saline): 0 of 10

SMILES: CCOC(=O)n1cnc2ncnc(N)c21
- survivor count [2]: 0 of 10

SMILES: CCc1c(CC(=O)O)c2cc(C)ccc2n1Cc1ccc(Cl)cc1
- survivor count [3]: 6 of 10

SMILES: C[N+](C)(C)c1ncnc2nc[nH]c12
- T/C (dose: 20.0 mg/kg/injection, schedule: Q01DX006 (iv), vehicle: saline): 131 % of control
- survivor count (dose: 40.0 mg/kg/injection, schedule: Q#A X022 (ip), vehicle: saline): 6 of 10
- survivor count (dose: 80.0 mg/kg/injection, schedule: Q01DX011 (ip), vehicle: saline): 5 of 10
- survivor count (dose: 160.0 mg/kg/injection, schedule: Q01DX011 (ip), vehicle: saline): 4 of 10
- survivor count (dose: 160.0 mg/kg/injection, schedule: Q01DX011 (oral), vehicle: saline): 2 of 10
- survivor count (dose: 240.0 mg/kg/injection, schedule: Q03DX004 (ip), vehicle: saline): 1 of 10
- survivor count (dose: 320.0 mg/kg/injection, schedule: Q01DX011 (oral), vehicle: saline): 0 of 10
- survivor count (dose: 600.0 mg/kg/injection, schedule: Q01DX001 (ip), vehicle: saline): 0 of 10
- survivor count (dose: 640.0 mg/kg/injection, schedule: Q01DX011 (oral), vehicle: saline): 2 of 10

SMILES: CS(=O)(=O)OCCCOS(C)(=O)=O
- survivor count (dose: 60.0 mg/kg/injection, schedule: Q01DX011 (ip), vehicle: methylcellulose (MC)): 5 of 10

SMILES: Cn1cnc2[nH]cnc(=S)c21
- T/C [4]: 147 % of control

SMILES: COC1=C(N)C(=O)c2nc(-c3nc(C(=O)O)c(C)c(-c4ccc(OC)c(OC)c4O)c3N)ccc2C1=O
- survivor count (dose: 0.2 mg/kg/injection, schedule: Q01DX011 (ip), vehicle: saline): 1 of 10
- survivor count (dose: 0.3 mg/kg/injection, schedule: Q01DX011 (ip), vehicle: saline): 0 of 10
- survivor count (dose: 0.45 mg/kg/injection, schedule: Q01DX011 (ip), vehicle: saline): 0 of 10
- survivor count (dose: 0.66 mg/kg/injection, schedule: Q01DX011 (ip), vehicle: saline): 0 of 10

SMILES: NNc1nc2nc[nH]c2c(=O)[nH]1
- survivor count [3]: 2 of 10

SMILES: CCSCCC(N)C(=O)O (configuration not stated)
- survivor count (dose: 150.0 mg/kg/injection, schedule: Q01DX011 (ip), vehicle: saline): 6 of 10

SMILES: CSc1nc2nc[nH]c2c(=O)[nH]1
- T/C [4]: 131 % of control

SMILES: C1CN1c1nc(N2CC2)nc(N2CC2)n1
- survivor count (dose: 0.75 mg/kg/injection, schedule: Q01DX011 (ip), vehicle: saline): 5 of 10
- T/C (dose: 0.75 mg/kg/injection, schedule: Q02DX006 (ip), vehicle: saline): 125 % of control

SMILES: NNc1ncnc2nc[nH]c12
- survivor count [5]: 5 of 10
- survivor count [6]: 0 of 10

SMILES: Nc1c(Br)cc2c(c1Br)Cc1cc([N+](=O)[O-])ccc1-2
- survivor count (dose: 62.5 mg/kg/injection, schedule: Q01DX011 (ip), vehicle: saline): 4 of 10
- survivor count (dose: 250.0 mg/kg/injection, schedule: Q01DX011 (ip), vehicle: saline): 5 of 10

SMILES: CN(Cc1cnc2nc(N)nc(N)c2n1)c1ccc(C(=O)N[C@@H](CCC(=O)O)C(=O)O)cc1
- survivor count (dose: 1.0 mg/kg/injection, schedule: Q01DX011 (ip), vehicle: saline): 6 of 10

SMILES: CSc1ncnc2c1ncn2C1OC(CO)C(O)C1O (configuration not stated)
- survivor count (dose: 36.0 mg/kg/injection, schedule: Q01DX011 (ip), vehicle: saline): 0 of 10
- survivor count (dose: 54.0 mg/kg/injection, schedule: Q01DX011 (ip), vehicle: saline): 0 of 10

SMILES: CC(C)Sc1nc(N)nc2nc[nH]c12
- survivor count (dose: 200.0 mg/kg/injection, schedule: Q01DX011 (ip), vehicle: saline): 5 of 10

SMILES: O=C([O][Hg][CH2]C1COC([CH2][Hg][O]C(=O)c2ccccc2)CO1)c1ccccc1 (configuration not stated)
- T/C (dose: 8.0 mg/kg/injection, schedule: Q01DX009 (ip), vehicle: saline): 128 % of control
- survivor count (dose: 64.0 mg/kg/injection, schedule: Q01DX010 (ip), vehicle: saline): 3 of 10
- survivor count (dose: 128.0 mg/kg/injection, schedule: Q01DX010 (ip), vehicle: saline): 0 of 10

SMILES: CCc1nc(N)nc(N)c1-c1ccc(Cl)cc1
- survivor count [6]: 6 of 10

SMILES: CN1CC(=O)N=C1N
- survivor count (dose: 2000.0 mg/kg/injection, schedule: Q01DX011 (ip), vehicle: saline): 0 of 10

SMILES: Cn1ncc2c(N)ncnc21
- survivor count (dose: 60.0 mg/kg/injection, schedule: Q02DX006 (ip), vehicle: other): 5 of 10

SMILES: Nc1ncnc2n[nH]nc12
- survivor count [5]: 5 of 10
- survivor count [6]: 0 of 10
- survivor count [3]: 0 of 10

SMILES: [N-]=[N+]=CC(=O)CCC(N)C(=O)O (configuration not stated)
- survivor count (dose: 0.04 mg/kg/injection, schedule: Q01DX011 (ip), vehicle: saline): 0 of 10
- survivor count (dose: 0.06 mg/kg/injection, schedule: Q01DX011 (ip), vehicle: saline): 0 of 10
- survivor count (dose: 0.08 mg/kg/injection, schedule: Q01DX011 (ip), vehicle: saline): 0 of 10 and 2 of 10
- survivor count (dose: 0.1 mg/kg/injection, schedule: Q01DX011 (ip), vehicle: saline): 0 of 10
- survivor count (dose: 12.0 micrograms/kg/injection, schedule: Q01DX011 (ip), vehicle: saline): 6 of 10
